Laboratory results: PubChem BioAssay AID1159584 (Peter MacCallum Cancer Centre, 2016)
Here is one part, drawn at random, of about 18,000 reagents. Not all columns of the deposit are shown. Reagent sequences are not shown. Not stated in the record: the amount of reagent, the time to read-out.

Aim: 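Genes whose loss is lethal only together with E-cadherin loss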 (primary screen)
Cell system: human MCF10A breast epithelial cells, parental and CDH1-null
Reagent: siRNA against human genes
Measured: 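ATP luminescence (CellTiter-Glo) viability per line relative to mean mock wells over all plates, and the ratio of CDH1-null to parental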
Direction: CDH1-null / parental viability ratio: higher = CDH1-null cells survive relatively better than parental; CDH1-null viability vs mock: higher = more viable CDH1-null cells
Units: CDH1-null viability vs mock in fraction of mock

{"Target gene": "NME2", "CDH1-null / parental viability ratio": 1.04, "CDH1-null viability vs mock": 0.94}
{"Target gene": "MARK1", "CDH1-null / parental viability ratio": 1.23, "CDH1-null viability vs mock": 0.87}
{"Target gene": "ANKRD27", "CDH1-null / parental viability ratio": 1.17, "CDH1-null viability vs mock": 0.88}
{"Target gene": "INHA", "CDH1-null / parental viability ratio": 0.79, "CDH1-null viability vs mock": 0.74}
{"Target gene": "CCNK", "CDH1-null / parental viability ratio": 0.81, "CDH1-null viability vs mock": 0.38}
{"Target gene": "TP53I3", "CDH1-null / parental viability ratio": 1.36, "CDH1-null viability vs mock": 0.79}
{"Target gene": "PRSS2", "CDH1-null / parental viability ratio": 0.88, "CDH1-null viability vs mock": 0.76}
{"Target gene": "BHLHE40", "CDH1-null / parental viability ratio": 0.92, "CDH1-null viability vs mock": 0.9}
